Test results: article PMC10766536 (The Journal of Antibiotics, 2023)
Some entries of the source have several records that differ or are many. The list is limited to them. An entry can have further records. The records of an entry differ for a reason that is not stated; they may come from other doses, times, organisms or constructs than stated.

Tested on: Caco-2: endogenous transporters

CO[C@H]1/C=C/O[C@@]2(C)Oc3c(C)c(O)c4c(=O)c(c5oc6cc(OCCN(C)C)cc(O)c6nc-5c4c3C2=O)NC(=O)/C(C)=C\C=C\[C@H](C)[C@H](O)[C@@H](C)[C@@H](O)[C@@H](C)[C@H](OC(C)=O)[C@@H]1C
recovery: 16.3% and 58.3%
